Assay results taken from the supplement of paper PMC10849652.
The list shows a part of the results.

Chains of the proteins cited; added tags and fusions are not shown. Lines headed by an entry give the natural chain unless they say otherwise; changes in a name come on top.
UniProt Q8WV16: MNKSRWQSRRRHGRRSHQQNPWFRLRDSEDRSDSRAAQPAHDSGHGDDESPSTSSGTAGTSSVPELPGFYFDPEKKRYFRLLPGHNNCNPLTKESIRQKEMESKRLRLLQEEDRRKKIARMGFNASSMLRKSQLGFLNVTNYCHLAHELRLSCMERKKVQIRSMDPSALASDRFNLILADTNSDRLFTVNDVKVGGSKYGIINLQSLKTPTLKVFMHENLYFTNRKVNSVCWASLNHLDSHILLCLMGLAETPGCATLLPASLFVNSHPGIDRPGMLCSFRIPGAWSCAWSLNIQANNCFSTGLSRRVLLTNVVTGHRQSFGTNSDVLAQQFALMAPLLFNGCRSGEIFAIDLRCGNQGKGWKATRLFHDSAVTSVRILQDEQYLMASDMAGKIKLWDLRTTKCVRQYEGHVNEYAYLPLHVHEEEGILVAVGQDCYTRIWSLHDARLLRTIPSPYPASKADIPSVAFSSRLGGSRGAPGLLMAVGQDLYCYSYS
UniProt P53355: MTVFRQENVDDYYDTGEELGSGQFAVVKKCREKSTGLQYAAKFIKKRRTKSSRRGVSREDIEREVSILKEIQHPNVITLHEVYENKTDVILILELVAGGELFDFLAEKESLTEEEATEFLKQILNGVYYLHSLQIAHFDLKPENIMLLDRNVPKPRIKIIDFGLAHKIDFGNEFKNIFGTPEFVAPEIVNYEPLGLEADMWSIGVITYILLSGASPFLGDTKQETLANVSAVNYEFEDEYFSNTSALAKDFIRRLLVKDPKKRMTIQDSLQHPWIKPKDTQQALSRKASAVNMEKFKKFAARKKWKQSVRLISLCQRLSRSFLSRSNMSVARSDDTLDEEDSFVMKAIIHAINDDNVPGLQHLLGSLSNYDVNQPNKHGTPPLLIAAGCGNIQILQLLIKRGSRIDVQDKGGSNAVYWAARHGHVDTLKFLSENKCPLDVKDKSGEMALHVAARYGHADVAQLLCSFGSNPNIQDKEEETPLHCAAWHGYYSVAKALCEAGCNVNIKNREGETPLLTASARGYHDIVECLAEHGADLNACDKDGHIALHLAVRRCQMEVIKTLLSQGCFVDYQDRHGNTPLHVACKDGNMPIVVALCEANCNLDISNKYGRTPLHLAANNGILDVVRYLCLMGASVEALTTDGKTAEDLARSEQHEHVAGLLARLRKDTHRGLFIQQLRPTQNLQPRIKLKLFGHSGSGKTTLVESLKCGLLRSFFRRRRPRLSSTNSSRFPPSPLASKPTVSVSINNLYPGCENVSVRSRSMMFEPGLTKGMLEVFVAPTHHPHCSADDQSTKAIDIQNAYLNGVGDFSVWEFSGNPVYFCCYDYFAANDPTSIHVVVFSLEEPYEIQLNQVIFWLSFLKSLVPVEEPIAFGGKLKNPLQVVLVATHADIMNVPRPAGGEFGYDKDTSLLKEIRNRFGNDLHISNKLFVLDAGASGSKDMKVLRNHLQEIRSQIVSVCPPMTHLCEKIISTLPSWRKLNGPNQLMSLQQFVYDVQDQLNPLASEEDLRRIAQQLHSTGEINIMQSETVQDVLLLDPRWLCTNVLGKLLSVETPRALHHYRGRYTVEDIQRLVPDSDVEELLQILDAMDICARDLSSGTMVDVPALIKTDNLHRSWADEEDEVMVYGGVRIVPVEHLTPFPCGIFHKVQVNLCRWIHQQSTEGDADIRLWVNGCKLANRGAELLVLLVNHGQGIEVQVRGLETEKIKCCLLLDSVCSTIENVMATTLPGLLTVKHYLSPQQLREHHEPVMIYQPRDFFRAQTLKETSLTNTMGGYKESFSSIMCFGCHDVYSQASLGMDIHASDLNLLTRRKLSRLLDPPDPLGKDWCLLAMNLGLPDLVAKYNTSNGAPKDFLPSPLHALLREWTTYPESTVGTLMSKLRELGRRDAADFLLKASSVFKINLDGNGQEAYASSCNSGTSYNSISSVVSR
UniProt P25774, whole entry, looked up: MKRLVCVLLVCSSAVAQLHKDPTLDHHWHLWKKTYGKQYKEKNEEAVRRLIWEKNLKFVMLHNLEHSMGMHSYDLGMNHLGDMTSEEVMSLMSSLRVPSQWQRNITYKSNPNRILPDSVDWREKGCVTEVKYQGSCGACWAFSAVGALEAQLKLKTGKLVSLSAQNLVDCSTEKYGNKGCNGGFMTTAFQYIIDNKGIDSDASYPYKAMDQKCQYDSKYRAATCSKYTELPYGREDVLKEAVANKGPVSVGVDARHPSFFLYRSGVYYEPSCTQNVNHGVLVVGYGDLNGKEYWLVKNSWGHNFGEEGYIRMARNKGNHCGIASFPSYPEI
UniProt Q7LFL8: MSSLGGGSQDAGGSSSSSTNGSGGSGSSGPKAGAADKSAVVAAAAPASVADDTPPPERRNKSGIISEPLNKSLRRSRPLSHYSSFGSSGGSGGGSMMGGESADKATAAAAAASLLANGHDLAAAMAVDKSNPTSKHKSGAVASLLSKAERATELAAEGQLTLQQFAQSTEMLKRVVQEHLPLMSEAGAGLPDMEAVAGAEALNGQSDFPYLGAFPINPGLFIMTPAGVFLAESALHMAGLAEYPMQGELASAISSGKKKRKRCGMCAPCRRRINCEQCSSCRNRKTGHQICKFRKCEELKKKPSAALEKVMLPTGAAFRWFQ
UniProt Q96DE9: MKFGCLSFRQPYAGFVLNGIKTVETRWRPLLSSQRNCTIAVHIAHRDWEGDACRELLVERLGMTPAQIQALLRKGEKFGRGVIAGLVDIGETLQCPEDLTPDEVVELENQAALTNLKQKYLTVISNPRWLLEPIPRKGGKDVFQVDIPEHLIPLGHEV
UniProt Q53TN4: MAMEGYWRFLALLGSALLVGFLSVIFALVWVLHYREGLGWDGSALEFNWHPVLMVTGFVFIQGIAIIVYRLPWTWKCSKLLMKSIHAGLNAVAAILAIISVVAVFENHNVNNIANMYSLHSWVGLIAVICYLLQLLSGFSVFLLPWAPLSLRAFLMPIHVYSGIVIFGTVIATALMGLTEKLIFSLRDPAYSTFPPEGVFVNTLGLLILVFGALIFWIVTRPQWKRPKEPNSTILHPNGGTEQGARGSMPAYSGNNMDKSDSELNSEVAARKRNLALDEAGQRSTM
UniProt Q9GZU7: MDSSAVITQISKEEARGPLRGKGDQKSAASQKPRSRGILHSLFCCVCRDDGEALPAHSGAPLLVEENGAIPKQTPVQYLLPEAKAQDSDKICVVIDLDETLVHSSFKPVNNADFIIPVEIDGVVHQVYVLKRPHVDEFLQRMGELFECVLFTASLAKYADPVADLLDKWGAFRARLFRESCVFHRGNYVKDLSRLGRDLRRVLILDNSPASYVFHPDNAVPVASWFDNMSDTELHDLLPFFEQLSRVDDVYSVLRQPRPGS
UniProt Q16527: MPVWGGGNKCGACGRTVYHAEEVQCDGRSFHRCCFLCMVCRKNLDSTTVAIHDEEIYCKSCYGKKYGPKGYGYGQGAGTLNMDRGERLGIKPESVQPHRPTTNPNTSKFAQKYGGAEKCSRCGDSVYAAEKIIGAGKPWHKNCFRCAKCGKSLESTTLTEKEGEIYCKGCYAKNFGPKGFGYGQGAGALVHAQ
UniProt Q9BTE7: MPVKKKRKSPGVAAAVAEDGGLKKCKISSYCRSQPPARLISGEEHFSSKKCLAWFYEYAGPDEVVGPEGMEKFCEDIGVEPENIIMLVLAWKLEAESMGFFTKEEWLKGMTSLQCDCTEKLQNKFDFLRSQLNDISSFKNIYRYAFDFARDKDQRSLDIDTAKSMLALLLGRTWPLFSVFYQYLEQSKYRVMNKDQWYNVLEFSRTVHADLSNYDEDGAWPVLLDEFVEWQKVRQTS
UniProt Q9BWK5: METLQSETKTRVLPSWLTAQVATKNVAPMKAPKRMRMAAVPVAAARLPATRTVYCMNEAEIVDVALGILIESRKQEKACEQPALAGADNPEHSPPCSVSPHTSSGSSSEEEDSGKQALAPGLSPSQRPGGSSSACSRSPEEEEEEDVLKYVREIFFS
UniProt Q14999: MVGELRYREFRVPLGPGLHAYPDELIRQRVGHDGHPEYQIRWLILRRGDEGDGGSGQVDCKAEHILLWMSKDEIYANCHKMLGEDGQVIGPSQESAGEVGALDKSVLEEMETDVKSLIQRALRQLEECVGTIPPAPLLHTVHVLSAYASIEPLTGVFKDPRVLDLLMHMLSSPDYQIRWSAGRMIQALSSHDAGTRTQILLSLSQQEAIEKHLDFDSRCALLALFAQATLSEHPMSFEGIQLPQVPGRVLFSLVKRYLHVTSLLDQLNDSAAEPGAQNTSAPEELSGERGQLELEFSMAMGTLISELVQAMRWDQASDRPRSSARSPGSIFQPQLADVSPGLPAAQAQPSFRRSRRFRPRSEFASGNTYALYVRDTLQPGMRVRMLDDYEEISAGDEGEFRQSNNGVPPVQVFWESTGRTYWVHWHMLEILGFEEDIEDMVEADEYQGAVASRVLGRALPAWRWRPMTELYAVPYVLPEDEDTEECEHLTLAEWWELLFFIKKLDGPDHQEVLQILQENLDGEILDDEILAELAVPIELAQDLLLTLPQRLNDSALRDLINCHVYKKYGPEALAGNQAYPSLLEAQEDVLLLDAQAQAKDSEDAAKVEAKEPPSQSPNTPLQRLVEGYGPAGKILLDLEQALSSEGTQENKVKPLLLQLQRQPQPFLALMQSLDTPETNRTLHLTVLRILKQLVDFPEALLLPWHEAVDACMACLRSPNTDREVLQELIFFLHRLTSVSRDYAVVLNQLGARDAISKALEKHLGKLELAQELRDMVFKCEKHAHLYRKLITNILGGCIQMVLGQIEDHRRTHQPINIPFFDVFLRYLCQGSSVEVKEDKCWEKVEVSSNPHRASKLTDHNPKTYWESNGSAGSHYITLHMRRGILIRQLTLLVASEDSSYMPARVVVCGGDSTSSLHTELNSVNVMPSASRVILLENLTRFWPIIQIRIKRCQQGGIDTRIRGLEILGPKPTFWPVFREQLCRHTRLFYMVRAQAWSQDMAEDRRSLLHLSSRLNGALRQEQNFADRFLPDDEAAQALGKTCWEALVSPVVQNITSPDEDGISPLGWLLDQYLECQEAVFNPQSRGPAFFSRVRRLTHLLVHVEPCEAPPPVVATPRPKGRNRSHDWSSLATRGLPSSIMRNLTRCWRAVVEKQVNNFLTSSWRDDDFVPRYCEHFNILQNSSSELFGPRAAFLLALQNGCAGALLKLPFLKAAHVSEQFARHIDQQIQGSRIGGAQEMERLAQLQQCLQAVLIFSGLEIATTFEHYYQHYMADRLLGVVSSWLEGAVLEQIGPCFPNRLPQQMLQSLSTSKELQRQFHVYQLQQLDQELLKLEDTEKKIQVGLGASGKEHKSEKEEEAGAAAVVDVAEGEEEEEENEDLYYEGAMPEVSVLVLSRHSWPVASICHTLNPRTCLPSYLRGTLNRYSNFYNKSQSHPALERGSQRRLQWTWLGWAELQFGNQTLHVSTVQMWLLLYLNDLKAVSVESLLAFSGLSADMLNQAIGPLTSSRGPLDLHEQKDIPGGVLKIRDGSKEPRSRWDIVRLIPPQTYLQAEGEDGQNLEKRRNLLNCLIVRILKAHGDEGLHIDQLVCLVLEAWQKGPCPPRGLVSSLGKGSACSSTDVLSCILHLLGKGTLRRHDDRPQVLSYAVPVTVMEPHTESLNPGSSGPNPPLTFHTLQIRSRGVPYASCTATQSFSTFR
UniProt Q2TBE0: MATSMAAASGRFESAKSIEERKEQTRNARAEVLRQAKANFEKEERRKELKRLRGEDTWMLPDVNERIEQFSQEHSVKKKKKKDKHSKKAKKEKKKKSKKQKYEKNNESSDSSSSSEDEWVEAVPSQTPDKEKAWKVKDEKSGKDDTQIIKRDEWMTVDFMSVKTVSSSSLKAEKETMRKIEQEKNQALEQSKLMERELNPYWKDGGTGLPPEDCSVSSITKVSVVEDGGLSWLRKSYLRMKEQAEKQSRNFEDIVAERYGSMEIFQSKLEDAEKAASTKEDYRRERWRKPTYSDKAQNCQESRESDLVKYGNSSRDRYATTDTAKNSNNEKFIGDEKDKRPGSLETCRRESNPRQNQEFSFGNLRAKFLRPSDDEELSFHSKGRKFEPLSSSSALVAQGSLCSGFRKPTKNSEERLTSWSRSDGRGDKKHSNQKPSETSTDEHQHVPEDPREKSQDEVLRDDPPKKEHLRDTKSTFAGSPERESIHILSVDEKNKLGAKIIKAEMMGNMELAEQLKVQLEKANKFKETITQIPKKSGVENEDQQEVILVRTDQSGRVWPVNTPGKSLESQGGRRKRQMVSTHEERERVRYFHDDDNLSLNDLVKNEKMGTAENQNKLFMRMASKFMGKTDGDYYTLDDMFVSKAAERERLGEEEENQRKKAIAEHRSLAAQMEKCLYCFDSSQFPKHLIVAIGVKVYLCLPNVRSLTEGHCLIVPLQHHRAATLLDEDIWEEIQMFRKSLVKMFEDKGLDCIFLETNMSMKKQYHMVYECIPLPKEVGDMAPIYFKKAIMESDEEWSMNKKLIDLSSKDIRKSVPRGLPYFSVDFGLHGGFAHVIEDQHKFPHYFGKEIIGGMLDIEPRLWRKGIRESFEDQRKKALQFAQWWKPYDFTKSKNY

These targets were tested with Cn1cc(-c2ccc3nnc(C(F)(F)c4ccc5ncccc5c4)n3n2)cn1 (assay: log2 fold change, soluble protein after heating vs DMSO (PISA); higher = thermal stabilisation; K562 cells, 10 uM, 30 min; active = over 0.2 and 3.5 SD of the protein, either way, in both replicates (recomputed)).
Summary of the method: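 Soluble protein was quantified by TMTpro 16plex LC-MS/MS after channel sums were equalised. It was obtained as the supernatant after 21,000xg for 90 min from pooled aliquots of K562 cells (2×10^6 cells/mL, 10 μM compound, 30 min) heated for 3 min across 48°C-58°C and extracted in PBS with 0.5% NP-40 at 4°C. Thermal stability values are relative to control samples and come from duplicates. They are given as log2 fold changes.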

log2 fold change, inactive:
DCAF4 (UniProt Q8WV16) 0.079
DAPK1 isoform 3 (UniProt P53355) 0.136
CTSS (UniProt P25774) -0.028
CXXC5 (UniProt Q7LFL8) -0.155
CXorf40B (UniProt Q96DE9) 0.11
DCP2 (UniProt Q8IU60) -0.033
CYBRD1 (UniProt Q53TN4) -0.597
CTDSP1 (UniProt Q9GZU7) 0.142
CSRP2 (UniProt Q16527) -0.171
DCUN1D5 (UniProt Q9BTE7) -0.069
CYREN (UniProt Q9BWK5) -0.145
CUL7 isoform 2 (UniProt Q14999) -0.03
CWF19L2 (UniProt Q2TBE0) 0.001
CTR9 (UniProt Q6PD62) -0.055
CYP4V2 (UniProt Q6ZWL3) 0.058
CTIF (UniProt O43310) 0.161

Quoted at random: two records from the list, in no set order.
log2 fold change, inactive:
CYREN (UniProt Q9BWK5) -0.145
CSRP2 (UniProt Q16527) -0.171
